This assay is described as follows: qHTS Assay for Lipid Storage Modulators in Drosophila S3 Cells.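 As to cell number change: cells counted by Cell Tracker Red CMTPX staining in the red channel.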 Conditions: BODIPY lipid droplet fluorescence, 18-24 h; for cell number change: measured here: cell count max response, cells fed with added oleic acid. In outline: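 Drosophila S3 cells loaded with oleic acid (400 uM, as added) and compounds at several concentrations; lipid droplets imaged by 488-nm laser-scanning cytometry, 500–530 nm intensity and object ratio to cell channel. Percent activity normalized to 20 uM Triacsin C.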
Background: qHTS replaces the single test concentration by a dilution series.

The mark [1] stands for this setting: measured here: cell number channel AC50, cells fed with added oleic acid.
Where [2] appears, read: measured here: lipid fluorescence (Fed channel) AC50, cells fed with added oleic acid.

The other results are listed elsewhere or left out. The main result of the screen is listed elsewhere. These columns were measured beside it and carry no call. The list favours compounds with an active or inconclusive main result. Potencies come from curve fits of mixed quality, noted in brackets.

As usually defined, the AC50 is the midpoint of the concentration-response curve, whichever way the signal moves.

Consider `CN(C)S(=O)(=O)Oc1ccccc1C(=O)Nc1ccccc1Cl`, for which the cell number change is 146%. Besides, the AC50 under setting [1] is 29.1 µM [rising, single point]. In addition, the AC50 under setting [2] was 3.66 µM [falling, partial curve].
With `CC1(C)CCC[C@]2(C)[C@H]3CC(=O)O[C@]3(C)CC[C@@H]12`, the cell number change was -4.17%. Also, under setting [2], the AC50 was 0.082 µM [falling, partial curve, poor fit].
For the compound `CC(=O)c1sc(Nc2nc3cc4c(cc3s2)OCO4)nc1C`, the cell number change is 3.12%. For the same compound, the AC50 under setting [2] is 0.164 µM [rising, full curve, poor fit].
For `CCOC(=O)c1ccc(OS(=O)(=O)c2ccccc2)c(OC)c1`, the cell number change was found to be 20.8%. For the same compound, the AC50 under setting [2] was 0.259 µM [rising, full curve].
Regarding `CCn1c(Cc2ccc(OC)cc2)nnc1SCC(=O)NC1CCCCC1`, the cell number change was determined as 6.14%. Also, the AC50 under setting [2] is 0.651 µM [falling, partial curve].
With `CCn1c(SCC(=O)Nc2ccccc2C)nnc1-c1ccccc1O`, the cell number change was 72%. The AC50 under setting [1] was 7.31 µM [rising, partial curve]. For the same compound, the AC50 under setting [2] is 8.2 µM [rising, partial curve].
Consider `COc1cccc(CNC(=O)CN2c3cccc4cccc(c34)S2(=O)=O)c1`, for which the AC50 under setting [1] was 2.31 µM [rising, partial curve, poor fit].
Take `COc1cc(C(N)=O)cc(Br)c1OC`: the cell number change was -4.56%. The AC50 under setting [1] was 0.13 µM [falling, full curve, poor fit].
Consider `CCOC(=O)C(NC(=O)CC(C)C)(Nc1sc2c(c1C(N)=O)CCCC2)C(F)(F)F` (configuration not stated), for which the cell number change was -60.6%. Under setting [1], the AC50 is 5.8 µM [falling, partial curve, poor fit]. The concentration at half-maximal activity (AC50) under setting [2] was 5.8 µM [falling, partial curve].
With `O=C(C[n+]1cccc(Br)c1)c1ccc(-c2ccccc2)cc1`, under setting [1], the AC50 was 6.51 µM [rising, single point].
As for `COc1ccc(CCNC(=O)C(=O)NCC2OCCN2C(=O)c2ccc(Cl)cc2)cc1OC` (configuration not stated), the cell number change was 17.3%. Moreover, the half-maximal activity concentration (AC50) under setting [2] was 29.1 µM [rising, single point].
For the compound `COc1ccc(NC(=O)c2ccco2)c(NC(=O)c2ccc([N+](=O)[O-])cc2)c1`, the cell number change came to 14.9%. The AC50 under setting [1] was 6.51 µM [rising, single point]. Moreover, under setting [2], the AC50 was 0.00411 µM [rising, full curve, poor fit].
On to `Nc1cc(Cl)ccc1N1CCOCC1`, for which the cell number change was 18.1%.
For `CCOC(=O)CSc1nc2sc3c(c2c(=O)[nH]1)CC(C)(C)OC3`, the cell number change turned out to be 0.0566%. Under setting [2], the concentration at half-maximal activity (AC50) is 0.411 µM [falling, partial curve, poor fit].
As to `Cc1ncc(N=Nc2ccccc2Cl)c(-c2ccccc2)n1`, the cell number change was -59.5%. In addition, under setting [1], the AC50 is 25.9 µM [falling, partial curve]. Moreover, the AC50 under setting [2] was 20.6 µM [falling, single point].
As for `COc1ccc(C2=NOC(C(=O)NCc3ccccn3)C2)cc1` (configuration not stated), the AC50 under setting [2] was 3.26 µM [rising, partial curve].
For `COc1ccc(NCc2nnc(-c3ccccc3)o2)cc1`, the cell number change was -1.47%. Further, the half-maximal activity concentration (AC50) under setting [1] is 6.51 µM [rising, single point]. Moreover, the AC50 under setting [2] was 1.84 µM [falling, partial curve].
Consider `CC(Oc1ccccc1)C(=O)NC1CCSc2ccccc21` (configuration not stated), for which the cell number change was -18.8%. In addition, under setting [2], the AC50 is 6.51 µM [falling, single point].
Regarding `CN(CC(=O)Nc1cccc(F)c1)C(=O)CSc1ccccc1F`, the AC50 under setting [2] was 6.51 µM [rising, partial curve].
`O=C(O)c1nn(CCOc2cccc(Cl)c2)c(=O)c2ccccc12`: the cell number change amounted to 18.2%.
Turning to `COc1ccc(-c2nc(Cn3c(SCc4ccc(C)cc4)nc4ccncc43)c(C)o2)cc1OC`, the cell number change was -15.6%. The concentration at half-maximal activity (AC50) under setting [2] was 29.1 µM [falling, single point].
In the case of `O=C(Nc1nc2ccccc2s1)C1CCCN1S(=O)(=O)c1ccc(Cl)cc1` (configuration not stated), the cell number change was -5.87%. The AC50 under setting [2] was 0.366 µM [rising, full curve, poor fit].
With `COc1ccc(/C(C)=N/NC(=O)c2ccc(NS(=O)(=O)c3cccs3)cc2)cc1`, the cell number change is -22.6%.
For the compound `Cn1cnc(S(=O)(=O)Nc2ccc3c(c2)OCCO3)c1`, the cell number change turned out to be 34.1%. Moreover, the AC50 under setting [1] is 29.1 µM [rising, single point]. Further, the AC50 under setting [2] was 29.1 µM [rising, single point].
As for `COc1cc(C)c(S(=O)(=O)NCc2cccs2)cc1C`, the cell number change was -16.7%. Moreover, under setting [2], the concentration at half-maximal activity (AC50) is 0.231 µM [rising, full curve].
Regarding `O=C(NCCc1ccccc1)C(=O)NCC1(c2ccccc2)CCCC1`, the AC50 under setting [2] is 14.6 µM [rising, partial curve].
`O=C(CN1C(=O)NC2(CCCCC2)C1=O)Nc1ccccc1N1CCCC1`: the cell number change was -28.1%. For the same compound, under setting [2], the AC50 is 0.291 µM [falling, full curve, poor fit].
In the case of `CN(C)c1nc(-c2ccc([N+](=O)[O-])cc2)cs1`, the cell number change is 48%. The AC50 under setting [1] is 23.1 µM [rising, single point].
Consider `CC(=O)NC(CC(=O)NC12CC3CC(CC(C3)C1)C2)c1ccccc1` (configuration not stated), for which the cell number change is 70.8%. The AC50 under setting [1] is 16.4 µM [rising, single point]. Moreover, the AC50 under setting [2] was 6.51 µM [falling, partial curve, poor fit].
Consider `CCNC(=S)Nc1ccc(C)c(S(=O)(=O)Nc2ccccc2OC)c1`, for which the cell number change turned out to be 27.6%. Also, the AC50 under setting [2] was 0.13 µM [rising, full curve, poor fit].
Turning to `O=C(OCCCN=C1NS(=O)(=O)c2ccccc21)c1ccccc1F`, the cell number change came out at 14.8%. Further, under setting [2], the AC50 is 4.11 µM [falling, single point].
For `O=C(O)c1ccc2c(c1)C(=O)N(c1cccc(S(=O)(=O)Nc3cccc(C(F)(F)F)c3)c1)C2=O`, the cell number change was -84.8%. For the same compound, the AC50 under setting [2] is 0.00517 µM [falling, full curve, poor fit].
For the compound `C/C(=C\c1ccccc1)C(=O)Nc1nccs1`, the cell number change amounted to 27%. In addition, the concentration at half-maximal activity (AC50) under setting [2] is 23.1 µM [rising, single point].
For `O=S(=O)(c1ccc(F)cc1)N1CCc2ccccc21`, the cell number change was -21.5%. For the same compound, under setting [1], the concentration at half-maximal activity (AC50) was 2.91 µM [falling, single point].
As for `c1ccc(COC2CCCN(Cc3nc(Cc4ccccc4)no3)C2)cc1` (configuration not stated), the cell number change was -4.25%. The AC50 under setting [2] was 0.731 µM [falling, single point].
Regarding `CCOC(=O)C1=C(COC(=O)/C=C/c2ccc(O)c(OC)c2)NC(=O)NC1C` (configuration not stated), the cell number change was -14.1%. For the same compound, the half-maximal activity concentration (AC50) under setting [2] was 0.82 µM [falling, full curve, poor fit].
Turning to `Cc1cc(C(=O)NC2CC(C)(C)Cc3c2cnn3-c2ccccc2C)c(C)o1` (configuration not stated), the cell number change is -43.6%. Moreover, the AC50 under setting [1] is 29.1 µM [falling, single point]. The AC50 under setting [2] was 11.6 µM [falling, single point].
With `CCN(CC)C(=O)N(CC)Cc1ccccc1`, the cell number change was -7.32%.
Consider `CC/C(O)=C1\C(=O)CC(C)(C)CC1=NCCc1nc2ccccc2[nH]1`, for which, under setting [1], the AC50 was 0.259 µM [rising, partial curve, poor fit].
Take `Cc1cc2nc(SCC(=O)O)nc(C)c2cc1C`: the cell number change is 41.6%. Under setting [1], the AC50 was 13 µM [rising, single point].
As for `Cc1cccc(N(C(=O)CS(=O)CC(=O)Nc2ccc3c(c2)OCO3)C(C)C(=O)NC2CCCC2)c1C` (configuration not stated), the cell number change was -26.1%. Moreover, under setting [2], the AC50 is 11.6 µM [falling, partial curve].
Regarding `CCCOC(=O)c1ccc(OCC(O)Cn2c(C)nc3ccccc32)cc1` (configuration not stated), the cell number change is -43.3%. The AC50 under setting [2] was 29.1 µM [falling, single point].
For `Cc1ccc(S(=O)(=O)N2CCN(S(=O)(=O)c3ccccc3)C2c2ccc(N(C)C)cc2)cc1` (configuration not stated), the cell number change came out at 7.3%.
As for `COc1cccc(/C=N/Nc2ncnc3scc(-c4ccccc4)c23)c1OC`, the half-maximal activity concentration (AC50) was 0.146 µM [rising, full curve, poor fit] under setting [1] and 6.51 µM [rising, partial curve, poor fit] under setting [2].
Turning to `CC(C)c1ccc(C2C(C(=O)c3ccco3)=C(O)C(=O)N2CC2CCCO2)cc1` (configuration not stated), the cell number change stood at 17.1%.
In the case of `COc1cccc(/C=C2/Sc3ccc(C(=O)NCCN4CCCCCC4)cc3NC2=O)c1`, the cell number change was 4.78%. Besides, under setting [2], the AC50 is 0.00461 µM [rising, full curve].
`O=C(O)c1ccc2c3c(cccc13)C(=O)N(OS(=O)(=O)c1ccccc1)C2=O`: the cell number change amounted to 28.9%. Also, under setting [1], the AC50 was 0.291 µM [rising, full curve, poor fit].
Consider `Cc1ccc(Cn2nnc3c(=O)n(CC(=O)NCc4ccco4)cnc32)cc1`, for which the cell number change is -16.7%. Further, the AC50 under setting [2] was 1.3 µM [falling, partial curve].
Turning to `O=C1C(Cl)=C(Nc2ccc(F)cc2)C(=O)N1CCc1ccccc1`, the cell number change was found to be 70.7%. The AC50 under setting [1] was 20.6 µM [rising, single point]. The AC50 under setting [2] is 25.9 µM [rising, single point].
Take `CCOC(=O)CS(=O)(=O)c1ccc2ccccc2c1`: the cell number change was -5.1%. The AC50 under setting [2] was 3.26 µM [falling, single point].
Turning to `O=C1CC(N2CCOCC2)C(=O)N1Cc1ccc(N2CCCC2=O)cc1` (configuration not stated), the cell number change is -5.42%.
For the compound `O=C(NC1CCCC1)c1cc2c(=O)n3ccccc3nc2s1`, the cell number change is -2.2%. Further, under setting [2], the AC50 was 0.82 µM [rising, partial curve].
`O=C(COC(=O)CCC(=O)c1ccc(F)cc1)Nc1cccc(S(=O)(=O)N2CCCC2)c1`: the cell number change is -9.17%. Moreover, under setting [2], the AC50 is 18.4 µM [falling, single point].
Regarding `COCc1nn2c(N)c(-c3ccccc3)cnc2c1-c1ccccc1`, the cell number change is -0.985%. Moreover, under setting [2], the AC50 was 2.59 µM [rising, full curve, poor fit].
For the compound `Cc1ccc(C(=O)Oc2oc(-c3ccccc3)nc2C=Nc2ccc(N(C)C)cc2)cc1`, the cell number change is -4.24%. In addition, the AC50 under setting [2] was 9.2 µM [rising, single point].
As to `CCC(C)NC(=O)COC(=O)c1ccc(Cl)cc1O` (configuration not stated), the cell number change is -43.6%. Besides, the AC50 under setting [1] is 29.1 µM [falling, single point]. Besides, the AC50 under setting [2] was 23.1 µM [falling, single point].
In the case of `CN=c1scc(-c2ccc(F)cc2)n1/N=C/c1ccc(O)c(O)c1`, the cell number change was -38.3%. Under setting [1], the AC50 is 29.1 µM [falling, single point]. The AC50 under setting [2] is 29.1 µM [falling, single point].
For `O=C(O)CSc1cccc2cccc(C(=O)O)c12`, the cell number change is -100%. Besides, the AC50 under setting [1] was 18.4 µM [falling, single point].
Take `COc1cc2c(cc1NC(C)=O)CCCC2`: the cell number change was -4.41%. For the same compound, under setting [2], the AC50 is 29.1 µM [rising, single point].

Source of the values: PubChem BioAssay AID2685 (National Center for Advancing Translational Sciences (NCATS), 2010).
